Reference: PMC11508707
Results are given in words; binding and its absence hold for the method and conditions named. Binding seen in cells or lysates may run through a third protein. A result given as binding can be weak or reduced; the word gives no strength. Sequences can lack the tags named with a protein.

The substances below were run against T1, Flag-STING (stimulator of interferon genes) (UniProt Q3TBT3) (assay: co-IP; RAW264.7 cells co-transfected by electroporation with HA-ROP5 (or truncations) and Flag-tagged host protein plasmids; lysed at 24 hpt in RIPA buffer; rabbit antibodies (1 ug) 1 h at 4 °C, Protein A/G PLUS-Agarose overnight; washed at least 6 times with RIPA; Western blot).
T1 sequence: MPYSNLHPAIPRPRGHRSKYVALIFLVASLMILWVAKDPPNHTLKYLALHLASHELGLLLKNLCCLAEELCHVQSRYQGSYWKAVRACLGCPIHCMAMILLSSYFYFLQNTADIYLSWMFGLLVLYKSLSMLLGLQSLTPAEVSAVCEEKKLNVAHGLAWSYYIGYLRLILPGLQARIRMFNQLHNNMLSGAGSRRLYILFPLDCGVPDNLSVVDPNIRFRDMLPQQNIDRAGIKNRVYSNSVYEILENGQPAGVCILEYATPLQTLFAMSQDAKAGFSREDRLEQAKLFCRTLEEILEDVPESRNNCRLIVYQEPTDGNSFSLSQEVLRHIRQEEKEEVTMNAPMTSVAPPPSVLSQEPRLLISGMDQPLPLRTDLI
“HA-ROP5ΔPD1 (ROP5 lacking predicted domain 1) (Toxoplasma gondii (PRU strain, type II)) (domain or fragment)” was tested, and the binding was “binds”.
With “HA-ROP5ΔPD2 (ROP5 lacking predicted domain 2) (Toxoplasma gondii (PRU strain, type II)) (domain or fragment)” the binding was “no binding”.
“HA-ROP5ΔPD3 (ROP5 lacking predicted domain 3) (Toxoplasma gondii (PRU strain, type II)) (domain or fragment)” was tested, and the binding was “binds”.
With “HA-ROP5ΔPD4 (ROP5 lacking predicted domain 4) (Toxoplasma gondii (PRU strain, type II)) (domain or fragment)” the binding was “binds”.
